The values below come from publication doi:10.1101/2020.04.16.001255.

The chains behind the UniProt entries cited, without tags or fusion partners.
UniProt Q92993: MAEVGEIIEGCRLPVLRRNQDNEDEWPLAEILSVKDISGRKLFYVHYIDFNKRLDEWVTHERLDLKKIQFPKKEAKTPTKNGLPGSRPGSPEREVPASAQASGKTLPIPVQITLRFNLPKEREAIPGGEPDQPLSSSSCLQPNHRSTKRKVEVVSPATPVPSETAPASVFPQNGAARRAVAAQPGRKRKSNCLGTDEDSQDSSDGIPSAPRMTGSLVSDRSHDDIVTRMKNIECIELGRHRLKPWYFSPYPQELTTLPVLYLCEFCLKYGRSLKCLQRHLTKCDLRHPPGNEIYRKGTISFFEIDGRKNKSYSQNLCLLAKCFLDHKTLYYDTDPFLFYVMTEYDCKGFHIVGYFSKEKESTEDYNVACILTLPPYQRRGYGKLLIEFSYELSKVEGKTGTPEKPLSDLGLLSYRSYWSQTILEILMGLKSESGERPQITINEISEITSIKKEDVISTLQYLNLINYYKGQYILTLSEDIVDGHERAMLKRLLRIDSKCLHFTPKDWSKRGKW

No constants are given. Whether binding was seen depends on the method and setting. Binding seen in cells or lysates may run through a third protein. Some results given as binding are weak or reduced against the parent protein; the word gives no strength. Where a sequence is shown, tags or fusion partners need not be part of it.

For this test, the target named is TIP60-HA (UniProt Q92993). Nature of the test: co-IP.

B1: FE65-EGFP (protein, UniProt O00213 1-710)
chain: MSVPSSLSQSAINANSHGGPALSLPLPLHAAHNQLLNAKLQATAVGPKDLRSAMGEGGGPEPGPANAKWLKEGQNQLRRAATAHRDQNRNVTLTLAEEASQEPEMAPLGPKGLIHLYSELELSAHNAANRGLRGPGLIISTQEQGPDEGEEKAAGEAEEEEEDDDDEEEEEDLSSPPGLPEPLESVEAPPRPQALTDGPREHSKSASLLFGMRNSAASDEDSSWATLSQGSPSYGSPEDTDSFWNPNAFETDSDLPAGWMRVQDTSGTYYWHIPTGTTQWEPPGRASPSQGSSPQEESQLTWTGFAHGEGFEDGEFWKDEPSDEAPMELGLKEPEEGTLTFPAQSLSPEPLPQEEEKLPPRNTNPGIKCFAVRSLGWVEMTEEELAPGRSSVAVNNCIRQLSYHKNNLHDPMSGGWGEGKDLLLQLEDETLKLVEPQSQALLHAQPIISIRVWGVGRDSGRERDFAYVARDKLTQMLKCHVFRCEAPAKNIATSLHEICSKIMAERRNARCLVNGLSLDHSKLVDVPFQVEFPAPKNELVQKFQVYYLGNVPVAKPVGVDVINGALESVLSSSSREQWTPSHVSVAPATLTILHQQTEAVLGECRVRFLSFLAVGRDVHTFAFIMAAGPASFCCHMFWCEPNAASLSEAVQAACMLRYQKCLDARSQASTSCLPAPPAESVARRVGWTVRRGVQSLWGSLKPKRLGAHTP
For the molecule B1, the binding entry is “binds”.
